{"source": "PubChem BioAssay AID2685", "about": "(National Center for Advancing Translational Sciences (NCATS), 2010)", "assay": "qHTS Assay for Lipid Storage Modulators in Drosophila S3 Cells;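 as to cell number change: cells counted by Cell Tracker Red CMTPX staining in the red channel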", "conditions": "BODIPY lipid droplet fluorescence, 18-24 h; for cell number change: measured here: cell count max response, cells fed with added oleic acid", "summary_of_the_method": "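Drosophila S3 cells loaded with oleic acid (400 uM, as added) and compounds at several concentrations; lipid droplets imaged by 488-nm laser-scanning cytometry, 500–530 nm intensity and object ratio to cell channel. Percent activity normalized to 20 uM Triacsin C.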", "key": {"[1]": {"conditions": "measured here: cell number channel AC50, cells fed with added oleic acid"}, "[2]": {"conditions": "measured here: lipid fluorescence (Fed channel) AC50, cells fed with added oleic acid"}}, "note": "Some of the results follow. These are further read-outs of the screen, such as a control signal, another cell line or another target. No call is given for them. Most of these compounds were active or inconclusive in the main read-out, so they are no random draw. Words in brackets tell the shape of the fitted curve; partial curves, single points and poor fits give uncertain potencies."}
{"smiles": "Nn1c(=O)c2ccccc2n2c(SCc3ccccc3)nnc12", "values": [{"measurement": "cell number change", "result": 210, "unit": "%"}, {"measurement": "AC50", "setting": "[1]", "result": "0.58 µM [rising, single point]"}, {"measurement": "AC50", "setting": "[2]", "result": "0.58 µM [rising, single point]"}]}
{"smiles": "O=C(O)c1ccccc1Nc1ccc2nonc2c1[N+](=O)[O-]", "values": [{"measurement": "cell number change", "result": -5.56, "unit": "%"}]}
{"smiles": "COc1ccc(NS(=O)(=O)c2ccc(-c3cnc(C4CC4)o3)cc2)cc1OC", "values": [{"measurement": "cell number change", "result": -15.3, "unit": "%"}, {"measurement": "AC50", "setting": "[2]", "result": "2.06 µM [falling, partial curve, poor fit]"}]}
{"smiles": "CCNC(=O)NC(=O)C(C)OC(=O)CNS(=O)(=O)c1c(Cl)cc(Br)cc1Cl", "note": "(centres undefined)", "values": [{"measurement": "cell number change", "result": -28.2, "unit": "%"}]}
{"smiles": "CCN(CC(=O)Nc1ccccc1C(F)(F)F)C(=O)CCSc1ccc(F)cc1", "values": [{"measurement": "cell number change", "result": -15.7, "unit": "%"}, {"measurement": "AC50", "setting": "[2]", "result": "4.11 µM [falling, full curve]"}]}
{"smiles": "CCCCNC(=O)c1cn(CC)c2cc(N3CCN(C)CC3)c(F)cc2c1=O", "values": [{"measurement": "cell number change", "result": 34.8, "unit": "%"}, {"measurement": "AC50", "setting": "[1]", "result": "16.4 µM [rising, partial curve, poor fit]"}, {"measurement": "AC50", "setting": "[2]", "result": "2.06 µM [rising, partial curve]"}]}
{"smiles": "Cc1ccc(C)c(OCCC(=O)OCC(=O)NC2CCS(=O)(=O)C2)c1", "note": "(centres undefined)", "values": [{"measurement": "cell number change", "result": -8.76, "unit": "%"}]}
{"smiles": "Cc1ccc(C(=O)N/C(=C/c2ccco2)C(=O)NCCc2c[nH]c3ccccc23)cc1", "values": [{"measurement": "cell number change", "result": 3.81, "unit": "%"}, {"measurement": "AC50", "setting": "[1]", "result": "5.17 µM [falling, single point]"}, {"measurement": "AC50", "setting": "[2]", "result": "0.0058 µM [rising, full curve, poor fit]"}]}
{"smiles": "CC1=CC(=O)O[C@@H]1[C@@]1(C)C[C@H]2OC(=O)C[C@H]3[C@@H](C)C(=O)C(O)=C1[C@@]23CO", "values": [{"measurement": "cell number change", "result": -5.59, "unit": "%"}, {"measurement": "AC50", "setting": "[2]", "result": "0.0366 µM [rising, full curve, poor fit]"}]}
{"smiles": "Cc1ccc(NC(=O)CCC(=O)NNC(=O)c2ccccc2Cl)c(C)c1", "values": [{"measurement": "cell number change", "result": -2.64, "unit": "%"}, {"measurement": "AC50", "setting": "[2]", "result": "29.1 µM [falling, single point]"}]}
{"smiles": "CCOc1ccc(CCNC(=O)Cn2nc(C)n3cccc3c2=O)cc1OCC", "values": [{"measurement": "cell number change", "result": -21.5, "unit": "%"}, {"measurement": "AC50", "setting": "[2]", "result": "2.31 µM [rising, partial curve]"}]}
{"smiles": "COc1cccc(NC(=S)NC(=O)c2cccnc2)c1", "values": [{"measurement": "cell number change", "result": 43.9, "unit": "%"}, {"measurement": "AC50", "setting": "[1]", "result": "29.1 µM [rising, single point]"}]}
{"smiles": "CCn1c(=O)[nH]c(=O)c2c(N)c(C(=O)c3cc(F)ccc3F)sc21", "values": [{"measurement": "cell number change", "result": 7.37, "unit": "%"}, {"measurement": "AC50", "setting": "[2]", "result": "0.0058 µM [rising, full curve, poor fit]"}]}
{"smiles": "COc1cc(-c2nc3ccc4ccccc4c3c3c2CCC3)cc(OC)c1OC", "values": [{"measurement": "cell number change", "result": -3.86, "unit": "%"}]}
{"smiles": "CCN(CC)CCNc1ncnc2c1sc1nc(N3CCOCC3)c3c(c12)CC(C)(C)SC3", "values": [{"measurement": "cell number change", "result": -26.2, "unit": "%"}, {"measurement": "AC50", "setting": "[2]", "result": "0.82 µM [falling, full curve, poor fit]"}]}
{"smiles": "COc1ccc2[nH]c3ccccc3c2c1", "values": [{"measurement": "cell number change", "result": -17.6, "unit": "%"}]}
{"smiles": "Cc1ncc([N+](=O)[O-])n1CC(=O)Nc1ccc(F)cc1F", "values": [{"measurement": "cell number change", "result": 9.72, "unit": "%"}, {"measurement": "AC50", "setting": "[2]", "result": "0.58 µM [falling, single point]"}]}
{"smiles": "COC(=O)c1cn(CCC#N)nc1-c1ccc2ccccc2c1", "values": [{"measurement": "cell number change", "result": -25, "unit": "%"}, {"measurement": "AC50", "setting": "[2]", "result": "4.11 µM [rising, partial curve]"}]}
{"smiles": "CN1/C(=C\\C(=O)COC(=O)Cn2nnc(-c3ccccc3)n2)C(C)(C)c2ccccc21", "values": [{"measurement": "cell number change", "result": -5.65, "unit": "%"}, {"measurement": "AC50", "setting": "[2]", "result": "29.1 µM [rising, single point]"}]}
{"smiles": "COC(=O)C1C2C=CC3(CN(Cc4ccco4)C(=O)C13)O2", "note": "(centres undefined)", "values": [{"measurement": "cell number change", "result": -4.66, "unit": "%"}]}
{"smiles": "O=C(NCc1ccccc1F)C1CCN(C(=O)Nc2ccc(F)cc2)CC1", "values": [{"measurement": "cell number change", "result": 13.3, "unit": "%"}, {"measurement": "AC50", "setting": "[2]", "result": "29.1 µM [rising, single point]"}]}
{"smiles": "COc1ccc(-c2ccc(SCC(=O)NCc3ccco3)nn2)cc1", "values": [{"measurement": "cell number change", "result": 0.415, "unit": "%"}, {"measurement": "AC50", "setting": "[1]", "result": "0.411 µM [rising, full curve, poor fit]"}, {"measurement": "AC50", "setting": "[2]", "result": "29.1 µM [rising, single point]"}]}
{"smiles": "COC(=O)Cc1ccc(NC(=O)c2ccc3c(c2)C(=O)N(Cc2cccnc2)C3=O)cc1", "values": [{"measurement": "cell number change", "result": -18.6, "unit": "%"}, {"measurement": "AC50", "setting": "[2]", "result": "29.1 µM [falling, single point]"}]}
{"smiles": "COc1ccc(CCNC(=O)C(CC(C)C)NC(N)=O)cc1", "note": "(centres undefined)", "values": [{"measurement": "cell number change", "result": -24.9, "unit": "%"}]}
{"smiles": "CCCc1cc(=O)oc2c3c(c4c(c12)OC(C)(C)C=C4)OC(C)C(C)C3O", "note": "(centres undefined)", "values": [{"measurement": "cell number change", "result": -61.2, "unit": "%"}, {"measurement": "AC50", "setting": "[1]", "result": "18.4 µM [falling, single point]"}]}
{"smiles": "COCCN(CC(=O)NC1CCCCC1)C(=O)/C=C/C(=O)c1ccc(OC)cc1O", "values": [{"measurement": "cell number change", "result": -11.5, "unit": "%"}, {"measurement": "AC50", "setting": "[2]", "result": "1.46 µM [falling, full curve, poor fit]"}]}
{"smiles": "CCOc1ccc(NC(=O)N2CCC(c3nc4ccccc4[nH]3)CC2)cc1", "values": [{"measurement": "cell number change", "result": 1.48, "unit": "%"}, {"measurement": "AC50", "setting": "[1]", "result": "0.00651 µM [falling, full curve, poor fit]"}]}
{"smiles": "COc1cccc(NC(=O)Cn2c(=O)c3c(ncn3Cc3ccccc3)n(Cc3ccccc3)c2=O)c1", "values": [{"measurement": "cell number change", "result": 107, "unit": "%"}, {"measurement": "AC50", "setting": "[1]", "result": "1.64 µM [rising, full curve]"}]}
{"smiles": "COc1ccc(-c2c(C)nc3c(-c4ccsc4)cnn3c2N)cc1", "values": [{"measurement": "cell number change", "result": -45.4, "unit": "%"}, {"measurement": "AC50", "setting": "[1]", "result": "13 µM [falling, partial curve]"}, {"measurement": "AC50", "setting": "[2]", "result": "14.6 µM [falling, single point]"}]}
{"smiles": "CCOc1ccc(S(=O)(=O)NCCC(=O)OCC(=O)Nc2cc(C)on2)cc1", "values": [{"measurement": "cell number change", "result": -16.7, "unit": "%"}, {"measurement": "AC50", "setting": "[2]", "result": "32.6 µM [falling, single point]"}]}
{"smiles": "O=C1CSC(c2ccc([N+](=O)[O-])cc2)N1c1ccc(O)cc1", "note": "(centres undefined)", "values": [{"measurement": "cell number change", "result": 10.6, "unit": "%"}, {"measurement": "AC50", "setting": "[2]", "result": "0.58 µM [rising, single point]"}]}
{"smiles": "CC(=O)N1c2ccc(F)c(F)c2C[C@H]1C", "values": [{"measurement": "cell number change", "result": -17.5, "unit": "%"}, {"measurement": "AC50", "setting": "[2]", "result": "29.1 µM [rising, single point]"}]}
{"smiles": "Cc1ccc(N(CN2C(=O)c3ccccc3C2=O)C(=O)c2ccc([N+](=O)[O-])cc2[N+](=O)[O-])cc1", "values": [{"measurement": "cell number change", "result": -8.96, "unit": "%"}, {"measurement": "AC50", "setting": "[2]", "result": "6.51 µM [rising, single point]"}]}
{"smiles": "Cc1c(C(=O)NCc2ccc3c(c2)OCO3)cccc1[N+](=O)[O-]", "values": [{"measurement": "cell number change", "result": 9.86, "unit": "%"}, {"measurement": "AC50", "setting": "[2]", "result": "10.3 µM [rising, partial curve]"}]}
{"smiles": "Cc1ccc(C(=O)NCC(=O)OC(C)C(=O)NC2CCCc3ccccc32)cc1", "note": "(centres undefined)", "values": [{"measurement": "cell number change", "result": -16, "unit": "%"}, {"measurement": "AC50", "setting": "[2]", "result": "6.51 µM [rising, single point]"}]}
{"smiles": "CC1(C)N=C(N)N=C(N)N1c1cccc(C(=O)O)c1", "values": [{"measurement": "AC50", "setting": "[2]", "result": "20.6 µM [falling, partial curve]"}]}
{"smiles": "COc1ccc(S(=O)(=O)c2c(N)n(Cc3ccco3)c3nc4ccccc4nc23)cc1", "values": [{"measurement": "cell number change", "result": 24.8, "unit": "%"}, {"measurement": "AC50", "setting": "[1]", "result": "2.06 µM [rising, partial curve, poor fit]"}, {"measurement": "AC50", "setting": "[2]", "result": "2.59 µM [rising, single point]"}]}
{"smiles": "COc1ccc(CN(C)C(C)C(=O)Nc2ccc(S(=O)(=O)N3CCCC3)cc2)c(OC)c1OC", "note": "(centres undefined)", "values": [{"measurement": "cell number change", "result": 36.6, "unit": "%"}, {"measurement": "AC50", "setting": "[1]", "result": "2.91 µM [rising, full curve]"}]}
